{
  "source": "paper PMC7947203",
  "note": "No constants are given. Whether binding was seen depends on the method and setting. Binding seen in cells or lysates may run through a third protein. Some entries that bind do so weakly or less than the wild type. Tags and fused reporters may be left off the sequences shown.",
  "data": [
    {"molecular_target": "T1, Myc-TAK1 (UniProt O43318)", "T1 sequence": "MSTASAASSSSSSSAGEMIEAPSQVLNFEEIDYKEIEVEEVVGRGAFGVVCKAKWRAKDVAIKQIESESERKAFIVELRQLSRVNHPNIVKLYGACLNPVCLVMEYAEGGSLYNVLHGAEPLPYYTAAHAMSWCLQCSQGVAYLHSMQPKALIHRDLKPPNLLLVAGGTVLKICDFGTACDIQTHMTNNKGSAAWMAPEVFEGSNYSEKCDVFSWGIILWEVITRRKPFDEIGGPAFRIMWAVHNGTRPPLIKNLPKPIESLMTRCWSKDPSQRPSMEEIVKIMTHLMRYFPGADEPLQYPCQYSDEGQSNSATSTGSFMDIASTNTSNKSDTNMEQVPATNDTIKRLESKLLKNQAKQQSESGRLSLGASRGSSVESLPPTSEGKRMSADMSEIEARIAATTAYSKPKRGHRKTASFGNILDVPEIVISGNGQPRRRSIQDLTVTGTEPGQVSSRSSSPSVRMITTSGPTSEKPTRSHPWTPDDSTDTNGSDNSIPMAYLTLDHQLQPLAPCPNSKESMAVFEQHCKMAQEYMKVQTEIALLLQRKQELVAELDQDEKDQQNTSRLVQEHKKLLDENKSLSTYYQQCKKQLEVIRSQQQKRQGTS", "experiment": "co-IP", "values": [
      {"binder": "3×HA-TAB1 (protein, UniProt Q15750 1-504) MAAQRRSLLQSEQQPSWTDDLPLCHLSGVGSASNRSYSADGKGTESHPPEDSWLKFRSENNCFLYGVFNGYDGNRVTNFVAQRLSAELLLGQLNAEHAEADVRRVLLQAFDVVERSFLESIDDALAEKASLQSQLPEGVPQHQLPPQYQKILERLKTLEREISGGAMAVVAVLLNNKLYVANVGTNRALLCKSTVDGLQVTQLNVDHTTENEDELFRLSQLGLDAGKIKQVGIICGQESTRRIGDYKVKYGYTDIDLLSAAKSKPIIAEPEIHGAQPLDGVTGFLVLMSEGLYKALEAAHGPGQANQEIAAMIDTEFAKQTSLDAVAQAVVDRVKRIHSDTFASGGERARFCPRHEDMTLLVRNFGYPLGEMSQPTPSPAPAAGGRVYPVSVPYSSAQSTSKTSVTLSLVMPSQGQMVNGAHSASTLDEATPTLTNQSPTLTLQSTNTHTQSSSSSSDGGLFRSRPAHSLPPGEDGRVEPYVDFAEFYRLWSVDHGEQSVVTAP", "binding": "binds"},
      {"binder": "3×HA-TAB2 (protein, UniProt Q9NYJ8 1-693) MAQGSHQIDFQVLHDLRQKFPEVPEVVVSRCMLQNNNNLDACCAVLSQESTRYLYGEGDLNFSDDSGISGLRNHMTSLNLDLQSQNIYHHGREGSRMNGSRTLTHSISDGQLQGGQSNSELFQQEPQTAPAQVPQGFNVFGMSSSSGASNSAPHLGFHLGSKGTSSLSQQTPRFNPIMVTLAPNIQTGRNTPTSLHIHGVPPPVLNSPQGNSIYIRPYITTPGGTTRQTQQHSGWVSQFNPMNPQQVYQPSQPGPWTTCPASNPLSHTSSQQPNQQGHQTSHVYMPISSPTTSQPPTIHSSGSSQSSAHSQYNIQNISTGPRKNQIEIKLEPPQRNNSSKLRSSGPRTSSTSSSVNSQTLNRNQPTVYIAASPPNTDELMSRSQPKVYISANAATGDEQVMRNQPTLFISTNSGASAASRNMSGQVSMGPAFIHHHPPKSRAIGNNSATSPRVVVTQPNTKYTFKITVSPNKPPAVSPGVVSPTFELTNLLNHPDHYVETENIQHLTDPTLAHVDRISETRKLSMGSDDAAYTQALLVHQKARMERLQRELEIQKKKLDKLKSEVNEMENNLTRRRLKRSNSISQIPSLEEMQQLRSCNRQLQIDIDCLTKEIDLFQARGPHFNPSAIHNFYDNIGFVGPVPPKPKDQRSIIKTPKTQDTEDDEGAQWNCTACTFLNHPALIRCEQCEMPRHF", "binding": "binds"},
      {"binder": "3×HA-TAB3 (protein, UniProt Q8N5C8 1-712) MAQSSPQLDIQVLHDLRQRFPEIPEGVVSQCMLQNNNNLEACCRALSQESSKYLYMEYHSPDDNRMNRNRLLHINLGIHSPSSYHPGDGAQLNGGRTLVHSSSDGHIDPQHAAGKQLICLVQEPHSAPAVVAATPNYNPFFMNEQNRSAATPPSQPPQQPSSMQTGMNPSAMQGPSPPPPPPSYMHIPRYSTNPITVTVSQNLPSGQTVPRALQILPQIPSNLYGSPGSIYIRQTSQSSSGRQTPQSTPWQSSPQGPVPHYSQRPLPVYPHQQNYQPSQYSPKQQQIPQSAYHSPPPSQCPSPFSSPQHQVQPSQLGHIFMPPSPSTTPPHPYQQGPPSYQKQGSHSVAYLPYTASSLSKGSMKKIEITVEPSQRPGTAINRSPSPISNQPSPRNQHSLYTATTPPSSSPSRGISSQPKPPFSVNPVYITYTQPTGPSCTPSPSPRVIPNPTTVFKITVGRATTENLLNLVDQEERSAAPEPIQPISVIPGSGGEKGSHKYQRSSSSGSDDYAYTQALLLHQRARMERLAKQLKLEKEELERLKSEVNGMEHDLMQRRLRRVSCTTAIPTPEEMTRLRSMNRQLQINVDCTLKEVDLLQSRGNFDPKAMNNFYDNIEPGPVVPPKPSKKDSSDPCTIERKARRISVTSKVQADIHDTQAAAADEHRTGSTQSPRTQPRDEDYEGAPWNCDSCTFLNHPALNRCEQCEMPRYT", "binding": "binds"}
    ]}
  ]
}
